Measurements from paper PMC10164552, “PBRM1 bromodomains associate with RNA to facilitate chromatin association”.
The exact form of at least one protein or probe is not confirmed. Weaker means in comparison with the reference protein, sequence or condition of that experiment. At least one verdict was read from the data and is not stated in words by the source.

By UniProt entry, the sequences of proteins in these tests, tags left out. Residues count along the entry.
UniProt Q86U86, 496-637: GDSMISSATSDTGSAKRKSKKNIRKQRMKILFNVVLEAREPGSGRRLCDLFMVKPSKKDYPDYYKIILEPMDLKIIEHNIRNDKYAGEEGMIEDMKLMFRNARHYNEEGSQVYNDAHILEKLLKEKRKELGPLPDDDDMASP
UniProt Q86U86, 178-291: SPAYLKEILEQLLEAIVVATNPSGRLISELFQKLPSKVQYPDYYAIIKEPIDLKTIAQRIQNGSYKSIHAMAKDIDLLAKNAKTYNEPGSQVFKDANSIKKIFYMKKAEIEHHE

Tests used:
PBRM1 BD4 = PBRM1 BD4 (UniProt Q86U86); experiment: NMR titration (1H-15N HSQC); conditions: NMR: 0.1 mM 15N-BD, 50 mM K phosphate pH 7.0, 50 mM KCl, 2 mM DTT, 2 mM EDTA, 7% D2O, 25 C; recombinant protein; residues 496-637; protein details: His tag, TEV-cleaved
PBRM1 BD2 = PBRM1 BD2 (UniProt Q86U86); experiment: NMR titration (1H-15N HSQC); conditions: NMR: 0.1 mM 15N-BD, 50 mM K phosphate pH 7.0, 50 mM KCl, 2 mM DTT, 2 mM EDTA, 7% D2O, 25 C, recombinant protein, residues 178-291, protein details: His tag, TEV-cleaved

Sequence	binding result (PBRM1 BD4)	binding result (PBRM1 BD2)	Kd (PBRM1 BD2; limit from legend: Kd below 1/10 of protein concentration (0.1 mM))
ACACACACACACA [ssRNAII]	binds more weakly	binds more weakly	–
GGCAUCGUGC / GCACGAUGCC [dsRNAIV (no loop)]	–	–	< 10 µM
